The record followed here is the supplement of paper PMC11732987, “Enantioselective OTUD7B fragment discovery through chemoproteomics screening and high-throughput optimisation” (Communications Chemistry, 2025).

Chains of the proteins cited; added tags and fusions are not shown. Lines headed by an entry give the natural chain unless they say otherwise; changes in a name come on top. Residues count along the entry.
UniProt O94972: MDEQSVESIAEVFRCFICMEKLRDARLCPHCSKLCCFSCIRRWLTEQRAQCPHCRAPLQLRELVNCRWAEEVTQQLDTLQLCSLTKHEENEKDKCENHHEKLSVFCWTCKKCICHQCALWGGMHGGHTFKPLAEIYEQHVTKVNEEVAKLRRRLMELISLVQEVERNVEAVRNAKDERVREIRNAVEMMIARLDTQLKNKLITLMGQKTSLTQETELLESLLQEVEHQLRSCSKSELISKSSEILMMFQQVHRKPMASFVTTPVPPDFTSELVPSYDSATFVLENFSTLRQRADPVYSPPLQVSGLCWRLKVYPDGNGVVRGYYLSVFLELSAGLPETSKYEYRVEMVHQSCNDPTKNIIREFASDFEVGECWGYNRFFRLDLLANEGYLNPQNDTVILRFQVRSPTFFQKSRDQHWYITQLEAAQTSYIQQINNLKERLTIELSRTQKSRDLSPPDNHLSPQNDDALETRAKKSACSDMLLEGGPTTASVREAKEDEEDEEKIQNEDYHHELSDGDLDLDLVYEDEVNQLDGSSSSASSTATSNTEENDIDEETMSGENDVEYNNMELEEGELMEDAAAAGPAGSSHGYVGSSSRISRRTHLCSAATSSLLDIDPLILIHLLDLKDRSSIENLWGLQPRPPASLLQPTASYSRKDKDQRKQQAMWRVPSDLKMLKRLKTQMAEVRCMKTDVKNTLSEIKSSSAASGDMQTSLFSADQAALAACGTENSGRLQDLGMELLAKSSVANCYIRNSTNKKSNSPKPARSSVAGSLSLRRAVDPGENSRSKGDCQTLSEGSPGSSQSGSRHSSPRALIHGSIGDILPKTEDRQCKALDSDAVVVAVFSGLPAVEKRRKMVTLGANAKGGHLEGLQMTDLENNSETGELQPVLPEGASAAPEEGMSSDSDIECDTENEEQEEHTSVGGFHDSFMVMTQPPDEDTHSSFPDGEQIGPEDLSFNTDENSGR
UniProt Q9NV96, 2-24: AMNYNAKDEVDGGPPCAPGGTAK
UniProt Q5SNT2: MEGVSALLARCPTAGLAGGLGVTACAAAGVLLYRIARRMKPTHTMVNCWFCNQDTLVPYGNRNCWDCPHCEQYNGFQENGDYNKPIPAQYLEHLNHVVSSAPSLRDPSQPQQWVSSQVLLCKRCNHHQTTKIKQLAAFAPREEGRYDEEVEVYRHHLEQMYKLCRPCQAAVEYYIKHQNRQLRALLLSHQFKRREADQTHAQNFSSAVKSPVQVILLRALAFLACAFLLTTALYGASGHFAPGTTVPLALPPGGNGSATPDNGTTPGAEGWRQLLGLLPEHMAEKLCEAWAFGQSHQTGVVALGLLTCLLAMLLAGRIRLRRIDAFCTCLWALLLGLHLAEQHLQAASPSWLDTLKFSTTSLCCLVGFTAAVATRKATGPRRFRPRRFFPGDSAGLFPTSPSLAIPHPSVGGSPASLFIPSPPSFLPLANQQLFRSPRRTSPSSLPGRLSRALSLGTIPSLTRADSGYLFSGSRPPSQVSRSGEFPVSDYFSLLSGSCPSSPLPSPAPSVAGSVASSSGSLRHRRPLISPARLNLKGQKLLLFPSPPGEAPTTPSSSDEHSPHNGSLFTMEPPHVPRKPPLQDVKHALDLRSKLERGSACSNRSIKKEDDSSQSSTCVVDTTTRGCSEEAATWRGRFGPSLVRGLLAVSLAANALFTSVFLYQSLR
UniProt Q9Y3A6: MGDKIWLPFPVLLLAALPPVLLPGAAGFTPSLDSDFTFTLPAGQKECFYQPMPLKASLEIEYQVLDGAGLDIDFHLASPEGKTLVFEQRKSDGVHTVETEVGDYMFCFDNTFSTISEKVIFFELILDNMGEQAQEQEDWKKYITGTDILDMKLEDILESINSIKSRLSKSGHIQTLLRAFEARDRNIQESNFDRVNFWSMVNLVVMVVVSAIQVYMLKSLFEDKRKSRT
UniProt Q13049: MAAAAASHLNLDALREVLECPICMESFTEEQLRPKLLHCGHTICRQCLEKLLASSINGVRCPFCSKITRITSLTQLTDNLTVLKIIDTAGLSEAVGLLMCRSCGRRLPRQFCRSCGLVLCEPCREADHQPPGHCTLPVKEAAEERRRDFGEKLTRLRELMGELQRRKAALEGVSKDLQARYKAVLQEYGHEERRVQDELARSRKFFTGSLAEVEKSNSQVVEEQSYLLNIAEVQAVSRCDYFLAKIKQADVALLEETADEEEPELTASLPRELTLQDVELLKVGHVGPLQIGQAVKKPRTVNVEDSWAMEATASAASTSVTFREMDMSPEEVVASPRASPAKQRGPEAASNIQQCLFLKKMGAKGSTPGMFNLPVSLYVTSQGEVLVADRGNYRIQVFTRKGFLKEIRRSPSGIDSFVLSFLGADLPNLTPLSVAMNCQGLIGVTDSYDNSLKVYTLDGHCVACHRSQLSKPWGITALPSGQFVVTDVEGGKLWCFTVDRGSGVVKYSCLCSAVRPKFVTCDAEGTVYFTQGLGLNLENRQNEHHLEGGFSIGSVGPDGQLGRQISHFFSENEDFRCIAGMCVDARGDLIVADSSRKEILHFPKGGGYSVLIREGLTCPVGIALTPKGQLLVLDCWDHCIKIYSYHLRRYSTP
UniProt O14545: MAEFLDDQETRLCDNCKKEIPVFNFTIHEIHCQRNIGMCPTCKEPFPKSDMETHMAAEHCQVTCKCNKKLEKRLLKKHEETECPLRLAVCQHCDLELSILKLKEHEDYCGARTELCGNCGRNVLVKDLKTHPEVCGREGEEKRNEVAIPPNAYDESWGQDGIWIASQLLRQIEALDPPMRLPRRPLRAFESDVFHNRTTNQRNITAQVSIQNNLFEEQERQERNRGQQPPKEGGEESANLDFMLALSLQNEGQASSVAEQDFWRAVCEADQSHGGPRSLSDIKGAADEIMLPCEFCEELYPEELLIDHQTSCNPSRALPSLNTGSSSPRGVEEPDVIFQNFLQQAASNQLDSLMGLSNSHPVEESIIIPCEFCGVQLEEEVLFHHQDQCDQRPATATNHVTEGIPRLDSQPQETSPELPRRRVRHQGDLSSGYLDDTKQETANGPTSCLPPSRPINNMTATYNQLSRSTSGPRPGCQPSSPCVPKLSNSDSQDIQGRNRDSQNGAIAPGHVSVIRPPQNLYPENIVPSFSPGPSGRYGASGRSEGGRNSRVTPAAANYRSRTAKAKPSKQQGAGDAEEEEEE
UniProt Q12933: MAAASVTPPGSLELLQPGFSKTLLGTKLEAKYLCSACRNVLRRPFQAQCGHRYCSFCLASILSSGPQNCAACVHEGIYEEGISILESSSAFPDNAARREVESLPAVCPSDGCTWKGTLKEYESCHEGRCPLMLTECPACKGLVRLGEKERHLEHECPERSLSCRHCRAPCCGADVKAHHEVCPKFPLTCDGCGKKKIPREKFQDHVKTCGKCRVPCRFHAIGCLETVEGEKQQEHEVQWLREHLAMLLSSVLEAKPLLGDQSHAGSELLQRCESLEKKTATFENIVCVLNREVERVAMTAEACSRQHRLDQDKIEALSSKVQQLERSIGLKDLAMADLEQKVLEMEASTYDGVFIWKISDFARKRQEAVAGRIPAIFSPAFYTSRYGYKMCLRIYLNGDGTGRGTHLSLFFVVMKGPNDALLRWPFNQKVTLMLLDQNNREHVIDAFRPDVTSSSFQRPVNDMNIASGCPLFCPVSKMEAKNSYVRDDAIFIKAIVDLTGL
UniProt Q8TBZ6: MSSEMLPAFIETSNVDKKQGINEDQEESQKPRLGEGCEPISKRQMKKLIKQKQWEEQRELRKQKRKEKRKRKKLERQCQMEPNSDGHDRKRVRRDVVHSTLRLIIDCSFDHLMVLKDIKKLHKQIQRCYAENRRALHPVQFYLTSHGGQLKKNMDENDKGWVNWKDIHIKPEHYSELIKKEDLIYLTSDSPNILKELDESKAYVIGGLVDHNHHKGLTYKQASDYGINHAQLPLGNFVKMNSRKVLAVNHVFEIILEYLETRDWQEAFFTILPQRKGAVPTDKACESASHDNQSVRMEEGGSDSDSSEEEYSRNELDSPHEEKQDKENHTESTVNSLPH
UniProt O75382: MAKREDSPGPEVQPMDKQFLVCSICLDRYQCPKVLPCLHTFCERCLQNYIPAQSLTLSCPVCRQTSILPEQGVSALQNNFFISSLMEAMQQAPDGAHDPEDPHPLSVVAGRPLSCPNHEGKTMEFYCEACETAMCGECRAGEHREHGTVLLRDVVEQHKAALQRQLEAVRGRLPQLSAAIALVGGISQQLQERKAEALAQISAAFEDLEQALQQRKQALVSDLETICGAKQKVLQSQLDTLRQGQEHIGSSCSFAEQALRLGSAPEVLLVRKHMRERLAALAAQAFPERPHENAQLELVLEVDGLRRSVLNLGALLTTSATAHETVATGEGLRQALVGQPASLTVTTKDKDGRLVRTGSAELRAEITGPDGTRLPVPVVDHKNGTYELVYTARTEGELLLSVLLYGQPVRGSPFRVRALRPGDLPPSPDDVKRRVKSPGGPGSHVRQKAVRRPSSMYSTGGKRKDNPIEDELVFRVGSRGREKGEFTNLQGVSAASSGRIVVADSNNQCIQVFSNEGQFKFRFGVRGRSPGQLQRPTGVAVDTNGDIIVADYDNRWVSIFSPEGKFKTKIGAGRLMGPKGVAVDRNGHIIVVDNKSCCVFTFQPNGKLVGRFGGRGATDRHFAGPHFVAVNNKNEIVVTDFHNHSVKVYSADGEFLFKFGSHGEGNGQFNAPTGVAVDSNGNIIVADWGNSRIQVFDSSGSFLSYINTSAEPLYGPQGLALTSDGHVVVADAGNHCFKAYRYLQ
UniProt A0PJW6: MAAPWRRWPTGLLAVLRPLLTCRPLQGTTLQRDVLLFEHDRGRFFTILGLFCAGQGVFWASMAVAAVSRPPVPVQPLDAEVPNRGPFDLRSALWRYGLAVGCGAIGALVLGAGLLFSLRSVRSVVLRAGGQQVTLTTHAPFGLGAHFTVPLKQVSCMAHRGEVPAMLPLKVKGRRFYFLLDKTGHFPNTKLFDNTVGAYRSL
UniProt Q5JTV8: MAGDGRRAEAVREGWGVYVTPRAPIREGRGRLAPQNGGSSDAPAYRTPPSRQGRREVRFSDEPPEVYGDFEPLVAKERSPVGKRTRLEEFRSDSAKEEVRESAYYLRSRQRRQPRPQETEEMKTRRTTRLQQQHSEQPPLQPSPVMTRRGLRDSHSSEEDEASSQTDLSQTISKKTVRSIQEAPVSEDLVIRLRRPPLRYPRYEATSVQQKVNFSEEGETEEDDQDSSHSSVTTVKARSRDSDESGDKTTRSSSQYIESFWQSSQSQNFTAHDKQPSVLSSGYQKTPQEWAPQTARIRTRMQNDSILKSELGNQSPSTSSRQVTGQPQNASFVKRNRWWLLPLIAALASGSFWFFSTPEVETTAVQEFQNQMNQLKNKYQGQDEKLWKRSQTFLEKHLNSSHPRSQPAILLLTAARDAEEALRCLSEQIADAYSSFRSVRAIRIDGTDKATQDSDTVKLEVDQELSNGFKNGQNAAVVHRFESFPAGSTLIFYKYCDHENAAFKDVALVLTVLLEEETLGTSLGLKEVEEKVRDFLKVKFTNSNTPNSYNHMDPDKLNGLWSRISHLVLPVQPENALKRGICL
UniProt Q92547, 1444-1465: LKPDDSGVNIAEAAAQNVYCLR
UniProt Q12888, 586-605: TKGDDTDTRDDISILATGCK

The other results are listed elsewhere or left out. The data scatter; read single values as rough.

Compound in one assay: ClCC(=O)N[C@H]1CCCc2ccccc12
Put plainly: log2 mean competition ratio of IA-DTB cysteine labelling (DMSO/compound) (log2 ratio); higher = stronger cysteine engagement by compound. To be noted: 50 µM; treatment time: 4 h; cell line lysate: HEK293T. Here is the method:
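IA-DTB competitive cysteine chemoproteomics in HEK293T RIPA lysate. Lysates were treated with compound 29 or 30 at 50 or 200 µM for 4 h, then IA-DTB (500 µM, 1 h), trypsin-digested, NeutrAvidin-enriched and analysed by diaPASEF. Competition ratio = intensity DMSO / intensity compound (n=4 treated, n=64 DMSO); binding: mean log2 CR ≥ 1 and p ≤ 0.05 plus QC filters. Target is the cysteine site.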
As to TRIM37 C477 (UniProt O94972), the “log2 mean competition ratio” value was determined as 0.359.

On to TMEM30A C17 (UniProt Q9NV96), for which the “log2 mean competition ratio” value was found to be 0.384.

With TRAK1 C713, the “log2 mean competition ratio” value was 0.307.

TP53INP2 C214: the “log2 mean competition ratio” value turned out to be 0.36.

Regarding TMEM201 C626 (UniProt Q5SNT2), the “log2 mean competition ratio” value stood at 0.245.

Regarding TMED5 C47 (UniProt Q9Y3A6), the “log2 mean competition ratio” value is -0.0283.

Take TRIM32 C618 (UniProt Q13049): the “log2 mean competition ratio” value was -0.61.

In the case of TRAFD1 C135 (UniProt O14545), the “log2 mean competition ratio” value was -0.131.

Consider TRAF2 C182 (UniProt Q12933), for which the “log2 mean competition ratio” value was -0.129.

TRMT10A C285 (UniProt Q8TBZ6): the “log2 mean competition ratio” value is -0.179.

For the target TRIM3 C227 (UniProt O75382), the “log2 mean competition ratio” value is -0.495.

TMEM223 C156 (UniProt A0PJW6): the “log2 mean competition ratio” value came to 0.345.

Turning to TOR1AIP1 C424 (UniProt Q5JTV8), the “log2 mean competition ratio” value was 0.385.

For the target TOPBP1 C238 (UniProt Q92547), the “log2 mean competition ratio” value was -0.74.

As for TP53BP1 C604 (UniProt Q12888), the “log2 mean competition ratio” value is -0.389.

Turning to TPP2 C787, the “log2 mean competition ratio” value was -0.546.

For TOPBP1 C1463 (UniProt Q92547), the “log2 mean competition ratio” value turned out to be 0.393.

Consider TRIO C2599 (UniProt O75962), for which the “log2 mean competition ratio” value was -0.327.

As to TMA16 C75 (UniProt Q96EY4), the “log2 mean competition ratio” value was 0.0115.

On to TRIM33 C447, for which the “log2 mean competition ratio” value was -0.182.

Staying with this assay, now noted: 200 µM; treatment time: 4 h; cell line lysate: HEK293T.
TRIM37 C477 (UniProt O94972): the “log2 mean competition ratio” value was -0.157.

Regarding TMEM30A C17 (UniProt Q9NV96), the “log2 mean competition ratio” value was -0.037.

For TRAK1 C713, the “log2 mean competition ratio” value is -0.00611.

Turning to TP53INP2 C214, the “log2 mean competition ratio” value is -0.0792.

Consider TMEM201 C626 (UniProt Q5SNT2), for which the “log2 mean competition ratio” value came out at 0.322.

TMED5 C47 (UniProt Q9Y3A6): the “log2 mean competition ratio” value was -0.239.

On to TRIM32 C618 (UniProt Q13049), for which the “log2 mean competition ratio” value is -0.194.

On to TRAFD1 C135 (UniProt O14545), for which the “log2 mean competition ratio” value came out at 0.0983.

For the target TRAF2 C182 (UniProt Q12933), the “log2 mean competition ratio” value worked out at 0.0771.

As for TRMT10A C285 (UniProt Q8TBZ6), the “log2 mean competition ratio” value is 0.0337.

For TRIM3 C227 (UniProt O75382), the “log2 mean competition ratio” value was found to be 0.216.

For TMEM223 C156 (UniProt A0PJW6), the “log2 mean competition ratio” value came to 0.261.

Regarding TOR1AIP1 C424 (UniProt Q5JTV8), the “log2 mean competition ratio” value was 0.231.

For the target TOPBP1 C238 (UniProt Q92547), the “log2 mean competition ratio” value was -0.111.

Turning to TP53BP1 C604 (UniProt Q12888), the “log2 mean competition ratio” value came to 0.221.

For the target TPP2 C787, the “log2 mean competition ratio” value was -0.384.

Consider TOPBP1 C1463 (UniProt Q92547), for which the “log2 mean competition ratio” value stood at 0.16.

As to TRIO C2599 (UniProt O75962), the “log2 mean competition ratio” value was -0.38.

In the case of TMA16 C75 (UniProt Q96EY4), the “log2 mean competition ratio” value amounted to 0.109.

Consider TRIM33 C447, for which the “log2 mean competition ratio” value turned out to be 0.135.
